Measured values published in the supplement of paper PMC10849652.
Some of the results follow.

By UniProt entry, the sequences of proteins in these tests, tags left out. Where a name states a change or a piece, a line headed by the entry shows the natural chain unless it says otherwise.
UniProt Q6ICL3: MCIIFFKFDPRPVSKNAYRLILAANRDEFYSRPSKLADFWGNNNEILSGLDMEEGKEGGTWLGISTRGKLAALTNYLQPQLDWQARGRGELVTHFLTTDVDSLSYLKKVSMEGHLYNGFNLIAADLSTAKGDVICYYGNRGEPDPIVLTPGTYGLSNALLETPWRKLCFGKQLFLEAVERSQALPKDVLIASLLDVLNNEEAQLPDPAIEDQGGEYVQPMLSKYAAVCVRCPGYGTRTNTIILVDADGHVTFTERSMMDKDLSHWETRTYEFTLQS
UniProt Q9NZ01: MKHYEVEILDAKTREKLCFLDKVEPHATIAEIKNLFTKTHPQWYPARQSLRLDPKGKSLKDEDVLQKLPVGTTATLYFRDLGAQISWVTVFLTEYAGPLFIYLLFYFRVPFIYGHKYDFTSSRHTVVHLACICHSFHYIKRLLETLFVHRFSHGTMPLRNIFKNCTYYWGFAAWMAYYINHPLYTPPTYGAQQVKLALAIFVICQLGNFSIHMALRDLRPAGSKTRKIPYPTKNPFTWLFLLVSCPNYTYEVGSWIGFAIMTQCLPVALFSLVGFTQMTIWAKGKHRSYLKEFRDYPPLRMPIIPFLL
UniProt Q12800: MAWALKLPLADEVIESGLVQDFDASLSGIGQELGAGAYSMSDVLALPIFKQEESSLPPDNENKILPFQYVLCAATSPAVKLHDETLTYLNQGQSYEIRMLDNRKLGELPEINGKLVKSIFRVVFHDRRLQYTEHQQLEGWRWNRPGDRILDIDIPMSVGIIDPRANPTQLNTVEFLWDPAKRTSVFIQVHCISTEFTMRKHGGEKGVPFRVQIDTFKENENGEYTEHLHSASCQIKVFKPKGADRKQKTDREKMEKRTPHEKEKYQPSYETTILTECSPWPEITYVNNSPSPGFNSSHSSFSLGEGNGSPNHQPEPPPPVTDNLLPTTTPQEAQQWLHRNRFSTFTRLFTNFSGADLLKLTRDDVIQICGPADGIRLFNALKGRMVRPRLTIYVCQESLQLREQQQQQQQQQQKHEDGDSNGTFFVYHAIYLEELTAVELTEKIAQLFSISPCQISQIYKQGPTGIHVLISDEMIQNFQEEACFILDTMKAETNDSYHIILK
UniProt Q8TC07: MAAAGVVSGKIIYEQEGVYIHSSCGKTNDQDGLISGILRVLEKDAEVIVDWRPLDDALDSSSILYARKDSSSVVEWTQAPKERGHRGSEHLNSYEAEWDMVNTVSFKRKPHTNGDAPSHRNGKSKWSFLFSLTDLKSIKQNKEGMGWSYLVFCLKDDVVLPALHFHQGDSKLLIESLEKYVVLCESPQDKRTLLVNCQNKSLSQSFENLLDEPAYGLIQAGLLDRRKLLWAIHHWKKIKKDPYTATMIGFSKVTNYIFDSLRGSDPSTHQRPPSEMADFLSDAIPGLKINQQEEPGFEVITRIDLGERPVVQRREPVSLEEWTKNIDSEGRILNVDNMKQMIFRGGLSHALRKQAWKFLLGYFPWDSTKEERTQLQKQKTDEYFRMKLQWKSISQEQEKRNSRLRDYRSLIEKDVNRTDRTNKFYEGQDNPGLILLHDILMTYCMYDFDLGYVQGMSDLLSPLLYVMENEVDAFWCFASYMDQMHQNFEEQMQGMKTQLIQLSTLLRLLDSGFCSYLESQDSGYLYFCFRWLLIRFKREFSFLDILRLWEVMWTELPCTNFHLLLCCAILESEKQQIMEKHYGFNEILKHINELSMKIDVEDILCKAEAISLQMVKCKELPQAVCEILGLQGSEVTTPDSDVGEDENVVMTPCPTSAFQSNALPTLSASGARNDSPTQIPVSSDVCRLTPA
UniProt P17542, whole entry, looked up: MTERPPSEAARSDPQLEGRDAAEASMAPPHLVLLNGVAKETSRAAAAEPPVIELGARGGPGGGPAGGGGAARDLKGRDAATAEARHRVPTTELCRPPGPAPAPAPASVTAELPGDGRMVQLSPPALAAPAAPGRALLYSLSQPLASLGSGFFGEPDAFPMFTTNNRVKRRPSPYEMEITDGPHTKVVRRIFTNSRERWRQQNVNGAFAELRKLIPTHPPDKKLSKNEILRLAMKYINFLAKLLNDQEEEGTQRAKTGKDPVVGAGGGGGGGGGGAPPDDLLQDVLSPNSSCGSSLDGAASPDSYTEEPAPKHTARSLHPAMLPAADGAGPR
UniProt Q96EI5: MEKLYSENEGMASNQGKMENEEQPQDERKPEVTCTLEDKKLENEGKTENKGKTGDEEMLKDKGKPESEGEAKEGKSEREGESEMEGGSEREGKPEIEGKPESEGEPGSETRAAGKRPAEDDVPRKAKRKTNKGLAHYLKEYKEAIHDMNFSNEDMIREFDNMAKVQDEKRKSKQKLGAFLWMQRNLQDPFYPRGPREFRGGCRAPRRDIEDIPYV
UniProt Q9Y6I9: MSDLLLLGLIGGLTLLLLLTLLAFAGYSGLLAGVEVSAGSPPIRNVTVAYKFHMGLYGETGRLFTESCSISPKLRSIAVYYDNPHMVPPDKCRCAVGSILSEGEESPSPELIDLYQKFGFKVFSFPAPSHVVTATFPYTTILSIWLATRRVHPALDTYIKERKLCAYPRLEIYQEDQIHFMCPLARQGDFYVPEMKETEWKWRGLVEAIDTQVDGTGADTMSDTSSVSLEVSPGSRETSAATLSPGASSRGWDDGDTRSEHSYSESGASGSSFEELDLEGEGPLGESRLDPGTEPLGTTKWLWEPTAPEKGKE
UniProt P37802: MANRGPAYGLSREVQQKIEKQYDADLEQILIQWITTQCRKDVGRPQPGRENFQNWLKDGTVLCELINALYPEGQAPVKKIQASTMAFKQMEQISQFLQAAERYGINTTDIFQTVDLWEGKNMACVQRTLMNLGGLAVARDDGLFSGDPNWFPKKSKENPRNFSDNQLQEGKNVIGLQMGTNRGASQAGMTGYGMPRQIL
UniProt Q4KMP7: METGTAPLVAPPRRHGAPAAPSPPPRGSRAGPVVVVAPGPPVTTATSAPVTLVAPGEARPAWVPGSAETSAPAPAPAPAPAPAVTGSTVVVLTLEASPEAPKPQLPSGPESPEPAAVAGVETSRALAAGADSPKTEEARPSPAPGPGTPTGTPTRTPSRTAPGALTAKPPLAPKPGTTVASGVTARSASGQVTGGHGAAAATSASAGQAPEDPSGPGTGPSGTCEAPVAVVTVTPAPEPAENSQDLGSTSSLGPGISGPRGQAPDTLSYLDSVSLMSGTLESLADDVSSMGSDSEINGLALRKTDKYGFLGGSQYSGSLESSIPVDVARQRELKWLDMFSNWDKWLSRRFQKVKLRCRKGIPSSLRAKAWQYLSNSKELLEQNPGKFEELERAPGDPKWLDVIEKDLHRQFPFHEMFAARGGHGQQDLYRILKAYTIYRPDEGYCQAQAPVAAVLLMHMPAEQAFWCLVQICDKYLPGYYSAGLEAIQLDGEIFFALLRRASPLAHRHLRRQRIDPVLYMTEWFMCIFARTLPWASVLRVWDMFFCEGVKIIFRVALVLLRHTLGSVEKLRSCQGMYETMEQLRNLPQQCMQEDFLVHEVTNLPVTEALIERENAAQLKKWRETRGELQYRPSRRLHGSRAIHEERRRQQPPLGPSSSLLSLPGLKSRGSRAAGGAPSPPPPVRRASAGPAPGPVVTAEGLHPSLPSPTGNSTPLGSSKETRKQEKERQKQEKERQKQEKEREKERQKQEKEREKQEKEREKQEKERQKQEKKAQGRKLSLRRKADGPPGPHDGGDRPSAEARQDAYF
UniProt Q9NU19: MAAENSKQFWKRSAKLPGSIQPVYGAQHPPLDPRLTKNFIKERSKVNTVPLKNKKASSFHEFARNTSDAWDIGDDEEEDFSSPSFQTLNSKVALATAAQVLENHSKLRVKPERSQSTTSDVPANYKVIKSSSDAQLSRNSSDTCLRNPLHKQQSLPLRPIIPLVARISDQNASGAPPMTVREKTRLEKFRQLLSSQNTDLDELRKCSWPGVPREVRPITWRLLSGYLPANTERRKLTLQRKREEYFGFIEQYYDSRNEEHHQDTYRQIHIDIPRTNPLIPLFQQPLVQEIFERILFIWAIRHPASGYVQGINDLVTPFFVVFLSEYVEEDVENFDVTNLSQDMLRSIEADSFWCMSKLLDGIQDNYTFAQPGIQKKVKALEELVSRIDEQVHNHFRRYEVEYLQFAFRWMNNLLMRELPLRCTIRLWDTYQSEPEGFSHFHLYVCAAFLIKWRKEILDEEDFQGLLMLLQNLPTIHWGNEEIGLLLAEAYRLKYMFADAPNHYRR
UniProt Q9NVG8: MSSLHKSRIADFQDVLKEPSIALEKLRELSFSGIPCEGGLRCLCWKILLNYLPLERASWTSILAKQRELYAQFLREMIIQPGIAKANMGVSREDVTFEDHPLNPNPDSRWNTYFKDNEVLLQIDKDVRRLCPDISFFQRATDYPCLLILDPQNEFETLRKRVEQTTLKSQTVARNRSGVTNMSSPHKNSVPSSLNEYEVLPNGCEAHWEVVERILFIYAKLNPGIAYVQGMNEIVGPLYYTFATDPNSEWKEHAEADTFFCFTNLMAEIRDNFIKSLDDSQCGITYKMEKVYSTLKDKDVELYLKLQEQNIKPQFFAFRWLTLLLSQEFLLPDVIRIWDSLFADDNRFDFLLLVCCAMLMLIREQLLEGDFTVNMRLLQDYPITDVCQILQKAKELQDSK
UniProt Q9H5Q4: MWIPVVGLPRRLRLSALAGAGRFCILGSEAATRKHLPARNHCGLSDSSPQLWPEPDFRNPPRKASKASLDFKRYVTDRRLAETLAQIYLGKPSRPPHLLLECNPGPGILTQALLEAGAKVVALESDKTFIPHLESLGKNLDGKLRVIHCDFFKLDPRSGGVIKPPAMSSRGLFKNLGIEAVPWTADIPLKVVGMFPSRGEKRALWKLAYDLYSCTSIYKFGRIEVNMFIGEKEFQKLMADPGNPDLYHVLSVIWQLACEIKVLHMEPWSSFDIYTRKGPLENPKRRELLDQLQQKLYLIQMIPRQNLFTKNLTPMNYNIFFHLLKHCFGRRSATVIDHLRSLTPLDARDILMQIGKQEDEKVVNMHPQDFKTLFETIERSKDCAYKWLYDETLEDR
UniProt Q9BT92: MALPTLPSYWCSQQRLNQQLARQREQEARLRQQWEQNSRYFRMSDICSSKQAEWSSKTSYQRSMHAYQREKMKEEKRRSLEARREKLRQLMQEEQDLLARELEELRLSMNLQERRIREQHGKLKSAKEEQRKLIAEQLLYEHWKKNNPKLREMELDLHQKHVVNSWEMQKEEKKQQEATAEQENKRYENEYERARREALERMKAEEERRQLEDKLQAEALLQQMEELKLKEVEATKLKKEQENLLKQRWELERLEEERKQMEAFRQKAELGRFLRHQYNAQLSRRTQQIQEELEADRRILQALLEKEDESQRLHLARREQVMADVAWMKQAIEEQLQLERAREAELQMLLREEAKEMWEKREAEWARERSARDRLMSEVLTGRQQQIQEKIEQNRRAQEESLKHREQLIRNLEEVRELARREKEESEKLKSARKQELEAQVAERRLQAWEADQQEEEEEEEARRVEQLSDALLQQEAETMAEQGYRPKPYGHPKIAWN
UniProt Q9BZK7: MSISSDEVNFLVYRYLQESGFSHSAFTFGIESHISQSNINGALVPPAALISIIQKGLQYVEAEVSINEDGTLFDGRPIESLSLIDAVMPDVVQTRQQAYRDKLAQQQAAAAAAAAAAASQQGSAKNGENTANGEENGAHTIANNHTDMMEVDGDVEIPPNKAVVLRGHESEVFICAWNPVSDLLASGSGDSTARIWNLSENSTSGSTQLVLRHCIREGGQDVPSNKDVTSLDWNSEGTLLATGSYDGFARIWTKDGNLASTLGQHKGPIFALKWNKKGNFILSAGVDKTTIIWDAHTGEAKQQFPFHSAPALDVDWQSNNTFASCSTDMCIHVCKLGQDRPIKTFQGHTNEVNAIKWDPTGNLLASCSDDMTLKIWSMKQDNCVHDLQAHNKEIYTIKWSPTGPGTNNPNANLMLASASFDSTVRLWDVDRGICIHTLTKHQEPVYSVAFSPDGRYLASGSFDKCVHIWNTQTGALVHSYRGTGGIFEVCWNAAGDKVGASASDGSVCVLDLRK
UniProt Q969Z0: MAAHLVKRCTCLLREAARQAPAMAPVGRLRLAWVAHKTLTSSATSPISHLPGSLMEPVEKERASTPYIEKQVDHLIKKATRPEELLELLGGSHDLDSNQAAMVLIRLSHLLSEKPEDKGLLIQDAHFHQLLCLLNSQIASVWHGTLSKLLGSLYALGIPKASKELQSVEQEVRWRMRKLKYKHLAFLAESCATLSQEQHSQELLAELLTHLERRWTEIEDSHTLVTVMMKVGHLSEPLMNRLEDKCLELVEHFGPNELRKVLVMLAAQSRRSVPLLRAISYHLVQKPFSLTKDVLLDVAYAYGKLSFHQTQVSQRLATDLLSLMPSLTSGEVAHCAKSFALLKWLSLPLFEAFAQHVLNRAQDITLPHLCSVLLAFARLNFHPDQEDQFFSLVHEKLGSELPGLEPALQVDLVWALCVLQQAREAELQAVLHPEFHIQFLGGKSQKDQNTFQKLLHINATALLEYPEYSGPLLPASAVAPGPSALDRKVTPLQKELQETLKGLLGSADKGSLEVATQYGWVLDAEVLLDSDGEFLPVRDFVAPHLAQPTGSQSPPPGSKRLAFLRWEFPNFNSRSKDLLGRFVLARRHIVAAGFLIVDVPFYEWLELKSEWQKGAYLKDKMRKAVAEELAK

Experiments:
Test in all cases: log2 fold change, soluble protein after heating vs DMSO (PISA); higher = thermal stabilisation; K562 lysate, 10 uM; active = over 0.2 and 3.5 SD of the protein, either way, in both replicates (recomputed)
[1] = compound: C1=CC=C(C=C1)[C@H](COC2=CC3=C(C=C2)NC(=O)N3)NC(=O)C4=CC=CN(C4=O)CC5=CC(=C(C=C5)F)F
Method in brief: (§1)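 Following dounce homogenisation of K562 pellets in PBS pH 7.4 with 1 mM MgCl2, crude extract at 1 mg/mL protein was incubated for 30 min with 10 μM compound. Aliquots were then heated for 3 min over 48°C-58°C and pooled, NP-40 was added to 0.5% at 4°C, and soluble protein was recovered as the supernatant at 21,000xg for 90 min. Channel-sum-equalised TMTpro 16plex LC-MS/MS quantified this protein. Each value, from duplicates, is a log-two fold change in thermal stability relative to solvent controls.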

[2] = compound: CC1=C(SC2=C1C(=N[C@H](C3=NN=C(N32)C)CC(=O)N)C4=CC=C(C=C4)Cl)C
Method in brief: as §1

[3] = compound: CC1=C2C(=CC=C1)N=C(N(C2=O)C3=CC=CC=C3C)CN4C=NC5=C(N=CN=C54)N
Method in brief: as §1

[4] = compound: Cc1sc2c(c1C)C(c1ccc(Cl)cc1)=N[C@@H](CC(=O)OC(C)(C)C)c1nnc(C)n1-2
Method in brief: as §1

[5] = compound: c1ccc([C@@H]2C[C@H]2NC2CCNCC2)cc1
Method in brief: as §1

Measured: log2 fold change

TET1 (UniProt Q8NFU7)
inactive: [1] -0.038 | [2] 0.072 | [3] 0.002 | [4] -0.148 | [5] -0.454

TANGO2 isoform 4 (UniProt Q6ICL3)
inactive: [1] 0.078 | [2] 0 | [3] -0.022 | [4] -0.017 | [5] 0.058

TCAF2 (UniProt A6NFQ2)
inactive: [1] 0.159 | [2] 0.091 | [3] 0.027 | [4] 0.007 | [5] 0.042

TECR (UniProt Q9NZ01)
inactive: [1] -0.131 | [2] 0.083 | [3] 0.015 | [4] 0.017 | [5] 0.046

TFCP2 (UniProt Q12800)
inactive: [1] 0.044 | [2] -0.013 | [3] 0.004 | [4] -0.013 | [5] -0.103

TBL1X (UniProt O60907)
inactive: [1] 0.024 | [2] 0.001 | [3] -0.002 | [4] 0.044 | [5] -0.018

TBC1D15 isoform 3 (UniProt Q8TC07)
inactive: [1] -0.007 | [2] -0.01 | [3] 0.003 | [4] 0.04 | [5] 0.052

TBCC (UniProt Q15814)
inactive: [1] 0.001 | [2] 0.034 | [3] 0.008 | [4] 0.017 | [5] -0.012

TCERG1 (UniProt O14776)
inactive: [1] -0.043 | [2] 0.039 | [3] 0.005 | [4] 0.033 | [5] 0.019

TAL1 (UniProt P17542)
inactive: [1] -0.02 | [2] 0.047 | [3] 0.002 | [4] -0.008 | [5] -0.026

TCEAL4 isoform 2 (UniProt Q96EI5)
inactive: [1] 0.165 | [2] -0.021 | [3] 0.025 | [4] -0.093 | [5] -0.148

TEX264 (UniProt Q9Y6I9)
inactive: [1] -0.08 | [2] -0.085 | [3] 0.043 | [4] 0.087 | [5] 0.059

TAGLN2 isoform 2 (UniProt P37802)
inactive: [1] 0.042 | [2] -0.061 | [3] -0.003 | [4] -0.002 | [5] 0.011

TATDN2 (UniProt Q93075)
inactive: [1] -0.021 | [2] -0.092 | [3] -0.039 | [4] 0.08 | [5] -0.05

TBC1D10B (UniProt Q4KMP7)
inactive: [1] 0.075 | [2] 0.03 | [3] -0.016 | [4] 0.014 | [5] -0.035

Random excerpt: two entries already listed
TEX264 (UniProt Q9Y6I9)
inactive: [1] -0.08 | [2] -0.085 | [3] 0.043 | [4] 0.087 | [5] 0.059

TECR (UniProt Q9NZ01)
inactive: [1] -0.131 | [2] 0.083 | [3] 0.015 | [4] 0.017 | [5] 0.046

(list continues)

TBC1D22B (UniProt Q9NU19)
inactive: [1] 0.027 | [2] 0.017 | [3] 0.035 | [4] 0.013 | [5] 0.03

TDRKH (UniProt Q9Y2W6)
inactive: [1] -0.02 | [2] -0.028 | [3] 0.1 | [4] 0.005 | [5] -0.053

TBC1D13 (UniProt Q9NVG8)
inactive: [1] 0.016 | [2] -0.018 | [3] -0.008 | [4] -0.045 | [5] -0.044

TAOK3 (UniProt Q9H2K8)
inactive: [1] -0.006 | [2] -0.013 | [3] -0.001 | [4] -0.057 | [5] 0.092

TFB2M (UniProt Q9H5Q4)
inactive: [1] -0.073 | [2] 0.015 | [3] 0.022 | [4] 0.007 | [5] 0.087

TCHP (UniProt Q9BT92)
inactive: [1] 0.151 | [2] -0.032 | [3] -0.051 | [4] 0.015 | [5] -0.007

TBC1D14 (UniProt Q9P2M4)
inactive: [1] 0.079 | [2] -0.124 | [3] 0.079 | [4] -0.139 | [5] 0.045

TBL1XR1 (UniProt Q9BZK7)
inactive: [1] 0.016 | [2] 0.02 | [3] 0.02 | [4] -0.033 | [5] -0.051

TBRG4 (UniProt Q969Z0)
inactive: [1] -0.071 | [2] 0.024 | [3] 0.018 | [4] 0.052 | [5] 0.094
